Molecules are shown by their SMILES.

The values that follow come from patent US10159670B2, “Methods of diagnosing and treating motor neuron diseases and other cellular stress-related diseases” (priority 2012, dated 2018).

Assay [1] concerns NSC-34 cells transfected with FUS R495X, TDP-43 A315T or SOD1 G93A. The assay can be described thus: Ratio of pre-miRNA to miRNA levels in NSC-34 cells transfected with ALS-causing mutants. The assay is classed as cell-based. The note with it: 100 μM for 72 hrs.
The test system of assay [2] is TDP-43 A315T mouse model of ALS. To be noted: 200 mg/kg-bodyweight/day.

For `CCn1cc(C(=O)O)c(=O)c2cc(F)c(N3CCNCC3)nc21` [Enoxacin], the “ratio of pre-miRNAs to miRNAs” value in assay [1] is “ameliorated”. The “Rotarod performance on day 62 relative to day 48” value in assay [2] is reported as “improved performance”.
